Test results taken from patent US20210261671A1.
Results are given in words; binding and its absence hold for the method and conditions named. Some entries that bind do so weakly or less than the wild type.

Amino acid sequences for entries named in this document (tags omitted). A change or cut given only in a name is not applied to a line headed by its entry.
UniProt P36888: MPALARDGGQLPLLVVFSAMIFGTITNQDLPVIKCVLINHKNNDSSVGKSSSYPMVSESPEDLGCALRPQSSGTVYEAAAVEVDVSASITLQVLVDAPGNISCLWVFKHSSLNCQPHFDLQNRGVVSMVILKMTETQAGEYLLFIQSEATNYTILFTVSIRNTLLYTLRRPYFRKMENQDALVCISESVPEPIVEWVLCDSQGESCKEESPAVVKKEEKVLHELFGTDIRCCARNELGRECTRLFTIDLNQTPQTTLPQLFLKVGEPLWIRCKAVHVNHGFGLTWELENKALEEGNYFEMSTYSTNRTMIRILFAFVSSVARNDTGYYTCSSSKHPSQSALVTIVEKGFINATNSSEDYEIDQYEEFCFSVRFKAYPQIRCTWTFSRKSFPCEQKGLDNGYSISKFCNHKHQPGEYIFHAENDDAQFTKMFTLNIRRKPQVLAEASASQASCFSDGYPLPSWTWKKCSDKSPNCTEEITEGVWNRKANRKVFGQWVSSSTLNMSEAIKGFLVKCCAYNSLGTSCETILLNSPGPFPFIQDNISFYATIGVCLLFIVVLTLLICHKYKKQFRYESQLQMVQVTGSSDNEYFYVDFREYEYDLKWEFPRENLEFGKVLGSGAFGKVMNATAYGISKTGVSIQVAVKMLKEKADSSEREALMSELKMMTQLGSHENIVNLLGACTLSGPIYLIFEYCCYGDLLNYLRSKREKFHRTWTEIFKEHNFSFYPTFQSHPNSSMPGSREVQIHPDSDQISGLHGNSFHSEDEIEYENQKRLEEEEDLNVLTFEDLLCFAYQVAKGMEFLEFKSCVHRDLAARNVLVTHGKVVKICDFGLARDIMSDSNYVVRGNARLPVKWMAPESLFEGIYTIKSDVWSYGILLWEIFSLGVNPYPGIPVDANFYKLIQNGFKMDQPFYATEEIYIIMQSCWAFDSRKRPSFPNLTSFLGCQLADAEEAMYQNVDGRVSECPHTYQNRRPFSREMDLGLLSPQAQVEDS

B1: FLL101 (VHH)
VHH: QVQLQESGGGLVQAGGSLRLSCAASGVTFSINYIDWYRQAPGKQREWVAQITRDSNSFYADSVKGRFAISRDNAKNTVYLQMNNLKPEDTAVYYCRVLSYWGQGTQVTVSS
B2: FLL103 (VHH)
VHH: QVQLQESGGGLVQAGGSLRLSCEASGPTFSINYIDWYRQAPGKQREWVAQITRDSNSFYADSVKGRFAVSRDNAKNTVYLQMNSLKPEDTAVYYCRVLSYWGQGTQVTVSS
B3: FLL116 (VHH)
VHH: QVQLQESGGGLVQAGGSLRLSCAASGVTFSINYIDWYRQAPGKQREWVAQITRDSNSFYADSVKGRFAISRDNAKNTVYLQMNSLKPEDTAVYYCRVLSYWGQGTQVTVSS
B4: FLL125 (VHH)
VHH: QVQLQESGGGLVQAGGSLRLSCAASGSTFSRNYIDWYRQAPGKQREWVAQITSGGNTHYEPSLKGRFTISRDNAKNTAYLQMNSLKPEDTAVYYCRILDYWGQGTQVTVSS
B5: FLL129 (VHH)
VHH: QVQLQESGGGLVQAGGSLRLSCAASGVTFSASYIDWYRQAPGNEREWVAQITRGGDSFYADSVKGRFAISRDNAKNTVYLQMNSLKPEDTAVYYCRVLSYWGQGTQVTVSS
B6: FLL137 (VHH)
VHH: QVQLQESGGGLVQAGGSLRLSCAASGSTFNNYAMDWFRQAPGKQREWVAQITRDSSSFYADSVKGRFAISRDNAKNTVYLQMNSLKPEDTAVYYCRVLSYWGQGTQVTVSS
B7: FLL14 (VHH)
VHH: QVQLQESGGGLVQAGGSLRLSCAASGVTFSINYIDWYRQAPGKQREWVAQITRDSNSFYADSVKGRFAISRDNAKNTVYLQMNSLKPEDTAVYYCRLLSYWGQGTQVTVSS
B8: FLL146 (VHH)
VHH: QVQLQESGGGLVQAGGSLRLSCAASGVTFSINYIDWYRQAPGKQREWVAQITRDDTSFYADSVKGRFAISRDNAKNTVYLQMNNLRPEDTAVYYCRLLSFWGQGTQVTVSS
B9: FLL158 (VHH)
VHH: QVQLQESGGGLVQPGGSLRLSCAASGSTFGRNYIDWYRQAPGKQREWVAQITSGGNTHYEPSLKGRFTISRDNAKNTAYLQMNSLKPEDTAVYYCRILDYWGQGTQVTVSS
B10: FLL179 (VHH)
VHH: QVQLQESGGGLVQAGGSLRLSCKASGVTFSINYIDWYRQAPGKQREWVAQITRDGSSFYADSVKGRFAISRDNAKNTVYLQMNSLKPEDTAVYYCRILSDWGQGTQVTVSS
B11: FLL181 (VHH)
VHH: QVQLQESGGGLVQAGDSLRLSCAASGVTFSASYIDWYRQAPGNEREWVAQITRGGDSFYADSVKGRFAISRDNAKNTVYLQMNSLKPEDTAVYYCRVLSYWGQGTQVTVSS
B12: FLL187 (VHH)
VHH: QVQLQESGGGLVQPGGSLRLSCAASGVTFSINYIDWYRQAPGKQREWVAQITRDSNSFYADSVKGRFAISRENAKNTVYLQMNSLKPEDTAVYYCRVLSYWGQGTQVTVSS
B13: FLL32 (VHH)
VHH: QVQLQESGGGLVQAGGSLRLSCQASGVTFNINYIDWYRQAPGRQREWVAQITRDSTRFYADSVKGRFAISRDNAKNMVYLQLNSLKPEDTAVYYCRILSYWGQGTQVTVSS
B14: FLL51 (VHH)
VHH: QVQLQESGGGLVQPGGSLRLSCAASGFDFSISYIDWYRQAPGNEREWVAQITRGGDSFYADSVKGRFAISRDNAKNTVYLQMNSLKPEDTAVYYCRILSYWGQGTQVTVSS
B15: FLL55 (VHH)
VHH: QVQLQESGGGLVQAGGSLRLSCAASGSTFSRNYIDWYRQAPGKQREWVAQITSAGNTHYEPSLKGRFTISRDNAKNTAYLQMNSLKPEDTAVYYCRILDYWGQGTQVTVSS
B16: FLL77 (VHH)
VHH: QVQLQESGGGLVQPGGSLRLSCAASGVTFSISYIDWYRQAPGNEREWVAQITRGGDSFYADSVKGRFAISRDNAKNTVYLQMNSLKPEDTAVYYCRILSYWGQGTQVTVSS
B17: FLL97 (VHH)
VHH: QVQLQESGGGLVQAGGSLRLSCAASGVTFSINYIDWYRQAPGKQREWVAQITRDSNSFYADSVKGRFAVSRDNAKNTVYLQMNSLKPEDTAVYYCRVLSYWGQGTQVTVSS
B18: FLL21 (VHH)
VHH: QVQLQESGGGLVQPGGSLTLSCAASGSTFSRNYIDWYRQAPGKQREWVAQITSGGNTHYEPSLKGRFTISRDNAKNTAYLQMNSLKPEDTAVYYCRILDYWGQGTQVTVSS
B19: FLL57 (VHH)
VHH: QVQLQESGGGLVQAGGSLRLSCAASGSTFSKNYIDWYRQAPGKQREWVAQITSGGNTHYEPSLKGRFTISRDNAKNTAYLQMNSLKPEDTAVYYCRILDYWGQGTQVTVSS
B20: FLL62 (VHH)
VHH: QVQLQESGGGLVQAGGSLRLSCAASGSTSSRNYIDWYRQAPGKQREWVAQITSGGNTHYEPSLKGRFTISRDNAKNTAYLQMNSLKPEDTAVYYCRILDYWGQGTQVTVSS
B21: FLL79 (VHH)
VHH: QVQLQESGGGLVQAGGSLRLSCSASGSTFSRNYIDWYRQAPGKQREWVAQITSGGNTHYEPSLKGRFTISRDNAKNTAYLQMNSLKPEDTAVYYCRILDYWGQGTQVTVSS
B22: FLL86 (VHH)
VHH: QVQLQESGGGLVQPGDPLRLSCAASGSTFSRNYIDWYRQAPGKQREWVAQITSGGNTHYEPSLKGRFTISRDNAKNTAYLQMNSLKPEDTAVYYCRILDYWGQGTQVTVSS
B23: FLL112 (VHH)
VHH: QVQLQESGGGLVQAGGSLRLSCAVSGRTFSGFGTGWFRQAPGKEREFVAAISWAGGRTHYEDSVKGRFTIHRDNAKNTVYLQMNSLKPEDTAVYYCAAQVSRAYDGIWYSGGDYWGQGTQVTVSS
B24: FLL142 (VHH)
VHH: QVQLQESGGGLVQAGGSLRLSCAVSGRTFSGFGTGWFRQAPGKEREFVAAISWDGGRTHYADFVKGRFTISRDNAKNTVYLQMNSLKPEDTAVYYCAAQVARAYDSKWYSGGDYWGQGTQVTVSS
B25: FLL143 (VHH)
VHH: QVQLQESGGGLVQAGGSLRLSCAVSGRTFSGFGTGWFRQAPGKEREFVAAISWVGGRTHYADSVKGRFTISRDNAKNTVYLQMNSLKPEDTAVYYCAAQVARAYDGNWYSGGDYWGQGTQVTVSS
B26: FLL154 (VHH)
VHH: QVQLQESGGGLVQAGGSLRLSCAVSGRTFSGFGTGWFRQAPGKEREFVAAISWSGGRTHYADSVKGRFTISRDNAKNTVYLQMNSLKPEDTAVYYCAGQVARAYDGNWYSRGDYWGQGTQVTVSS
B27: FLL168 (VHH)
VHH: QVQLQESGGGSVQAGGSLRLSCAFSGRTFSGFGTGWFRQAPEKEREFVAAISWDGGRTHYADSVKGRFTISRDNAKNTVYLQMDSLKPEDTAIYYCAAQVSRAYDGRWYSAVDYWGRGTQVTVSS
B28: FLL170 (VHH)
VHH: QVQLQESGGGLVQAGGSLRLSCAVSGRTFSGFGTGWFRQAPGKEREFVAAISWSGGTTHYADSVKGRFTISRDNAKNTVYLQMNSLKPEDTAVYYCAGQVARAYDSSWYSRGDYWGQGTQVTVSS
B29: FLL188 (VHH)
VHH: QVQLQESGGGLVQAGGSLGLSCAVSGRTFSGFGTGWFRQPPEKEREFVAAISWDGGRTHYADSVKGRFTISRDNAKNTVFLQMNSLKPEDTAVYYCAAQVARAYDSRWYSGGDYWGQGTQVTVSS
B30: FLL6 (VHH)
VHH: QVQLQESGGGLVQAGGSLRLSCAVSGRTFSGFGTGWFRQAPGKEREFVAAISWDGGRTHYADSVKGRFTISRDNAANTVYLQMNSLKPEDTAVYYCAGQVSRAYDSMWYGRDDYWGQGTQVTVSS
B31: FLL75 (VHH)
VHH: QVQLQESGGGLVQAGGSLRLSCAVSGRTFSGFGTGWFRQAPGKEREFVAAISWSGGTTHYADSVKGRFTISRDNAKNTVNLVYLQMNDLRPEDTAVYYCAGQVARAYDSNWYSRGDYWGQGTQVTVSS
B32: FLL83 (VHH)
VHH: QVQLQESGGGLVQAGGSLRLSCAVSGRTFSGFGTGWFRQAPGKEREFVAAISWSGGTTHYADSVKGRFTISRDNAENTVYLEMNSLKPEDTAVYICAGQVSRAYDSNWYSRDDYWGQGTQVTVSS
B33: FLL94 (VHH)
VHH: QVQLQESGGGLVQAGGSLRLSCAVSGRTFSGFGTGWFRQAPEKEREFVAAISWDGGRTHYADSVKGRFTISRDNAKNTVYLQMNSLKPEDTAIYYCAGQVARAYDTRWYSRGDYWGQGTQVTVSS
B34: FLL99 (VHH)
VHH: QVQLQESGGGLVQAGGSLRLSCAVSGRTFSGFGTGWFRQAPGKEREFVAAISWDGGRTHYADFVKGRFTISRDNAKNTVYLQMNSLKPEDTAVYYCAAQVARAYDSRWYSGGDYWGQGTQVTVSS
B35: FLL38 (VHH)
VHH: QVQLQESGGGLVQAGGSLRLSCAVSGRTFSGFGTGWFRQAPGKEREFVAAVSWSGGTTEIADSVKGRFTISRDNAKNTVYLQMSSLKPGDTAVYYCAGQVARAYDSRWYSRGDYWGQGTQVTVSS

Target: human FLT3 protein (human) (UniProt P36888)
Assay: colorimetric ELISA, periplasmic extract

Binder | binding
B1 | binds
B2 | binds
B3 | binds
B4 | binds
B5 | binds
B6 | binds
B7 | binds
B8 | binds
B9 | binds
B10 | binds
B11 | binds
B12 | binds
B13 | binds
B14 | binds
B15 | binds
B16 | binds
B17 | binds
B18 | binds

Binder | binding
B19 | binds
B20 | binds
B21 | binds
B22 | binds
B23 | binds
B24 | binds
B25 | binds
B26 | binds
B27 | binds
B28 | binds
B29 | binds
B30 | binds
B31 | binds
B32 | binds
B33 | binds
B34 | binds
B35 | binds
